Measured data: PubChem BioAssay AID1159584 (Peter MacCallum Cancer Centre, 2016)
The deposit covers about 18,000 reagents; below is an unselected part. Reagent sequences are not shown. Not stated in the record: the amount of reagent, the time to read-out.

- Purpose: 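Genes whose loss is lethal only together with E-cadherin loss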 (primary screen)
- Cells: human MCF10A breast epithelial cells, parental and CDH1-null
- Reagents: siRNA against human genes
- Measured: 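Cell viability by CellTiter-Glo ATP luminescence, each line scaled to the mean of mock wells across plates, then CDH1-null over parental ratio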
- Direction: CDH1-null / parental viability ratio: higher = CDH1-null cells survive relatively better than parental; CDH1-null viability vs mock: higher = more viable CDH1-null cells; parental viability vs mock: higher = more viable parental cells

gene	CDH1-null / parental viability ratio	CDH1-null viability vs mock (fraction of mock)	parental viability vs mock (fraction of mock)
ZNHIT2 (zinc finger HIT-type containing 2)	1.07	0.64	0.6
KRTAP17-1 (keratin associated protein 17-1)	1.37	0.52	0.38
MC1R (melanocortin 1 receptor)	0.94	1.01	1.08
PRPS2 (phosphoribosyl pyrophosphate synthetase 2)	0.97	0.99	1.02
ISL2 (ISL LIM homeobox 2)	1.21	0.75	0.62
TESMIN (testis expressed metallothionein like protein)	0.86	0.83	0.96
HYOU1 (hypoxia up-regulated 1)	0.98	1.12	1.14
ZNF556 (zinc finger protein 556)	0.94	0.66	0.7
MRPS17 (mitochondrial ribosomal protein S17)	1.38	0.66	0.48
LSM2	1.36	0.6	0.44
UNC50 (unc-50 inner nuclear membrane RNA binding protein)	0.94	0.84	0.89
CACHD1 (cache domain containing 1)	1.04	1.03	0.99
LCE1E (late cornified envelope 1E)	0.78	0.64	0.82
SCRG1 (stimulator of chondrogenesis 1)	0.71	0.5	0.7
SPOCK2	1.2	0.84	0.7
ZNF490 (zinc finger protein 490)	0.44	0.08	0.18
STX3 (syntaxin 3)	1.05	0.83	0.79
PHC2 (polyhomeotic homolog 2)	0.75	0.42	0.56
CSMD1 (CUB and Sushi multiple domains 1)	0.61	0.46	0.75
MRPL37 (mitochondrial ribosomal protein L37)	1.44	0.72	0.5
FYRD1 (FYRN and FYRC domains INO80 complex interactor 1)	1.49	0.88	0.59
CPM (carboxypeptidase M)	0.99	0.81	0.82
OLFML3 (olfactomedin like 3)	1.06	0.76	0.72
PRM2 (protamine 2)	1.79	0.7	0.39
PRUNE2 (prune homolog 2 with BCH domain)	0.95	0.7	0.74
TRIM71 (tripartite motif containing 71)	0.98	0.86	0.88
AUP1 (AUP1 lipid droplet regulating VLDL assembly factor)	0.98	0.78	0.8
GPT2 (glutamic--pyruvic transaminase 2)	1.29	0.8	0.62
MFNG (MFNG O-fucosylpeptide 3-beta-N-acetylglucosaminyltransferase)	1.08	0.67	0.62
CWF19L1 (CWF19 like cell cycle control factor 1)	1.03	0.76	0.74
CAPN7 (calpain 7)	1.24	0.92	0.74
OR6Q1 (olfactory receptor family 6 subfamily Q member 1)	1.24	0.94	0.76
SMYD2 (SET and MYND domain containing 2)	0.79	0.72	0.91
EIF4H (eukaryotic translation initiation factor 4H)	1.15	1.06	0.92
MED27 (mediator complex subunit 27)	0.92	0.88	0.96
CDC42EP4 (CDC42 effector protein 4)	0.77	0.6	0.78
PAPPA2 (pappalysin 2)	1.17	0.91	0.78
METTL2A (methyltransferase 2A, tRNA N3-cytidine)	1.07	0.64	0.6
ZNF700 (zinc finger protein 700)	1.02	0.67	0.66
BAK1 (BCL2 antagonist/killer 1)	1.05	0.86	0.82
GDNF (glial cell derived neurotrophic factor)	1.03	1.01	0.98
ACTBL2 (actin beta like 2)	0.88	0.9	1.02
PTCRA (pre T cell antigen receptor alpha)	1.35	0.73	0.54
IL27RA (interleukin 27 receptor subunit alpha)	1.33	0.73	0.55
AKAP14 (A-kinase anchoring protein 14)	1	0.8	0.8
COBLL1 (cordon-bleu WH2 repeat protein like 1)	1.11	1.02	0.92
PIGL (phosphatidylinositol glycan anchor biosynthesis class L)	0.72	0.47	0.65
SLC10A6	1.02	0.98	0.96
SLC16A6	1.06	0.87	0.82
GAB1 (GRB2 associated binding protein 1)	1.17	0.42	0.36
A4GALT (alpha 1,4-galactosyltransferase (P1PK blood group))	1.1	0.92	0.84
PDS5B (PDS5 cohesin associated factor B)	0.96	0.93	0.97
RAB11A (RAB11A, member RAS oncogene family)	1.1	0.9	0.82
ALPI (alkaline phosphatase, intestinal)	1.27	0.84	0.66
H3C12 (H3 clustered histone 12)	0.74	0.74	1
CA13 (carbonic anhydrase 13)	1	1.02	1.02
PCMT1 (protein-L-isoaspartate (D-aspartate) O-methyltransferase)	1.15	0.92	0.8
RAD51C (RAD51 paralog C)	1.06	1.04	0.98
PRXL2A (peroxiredoxin like 2A)	0.98	1	1.02
GRIP2 (glutamate receptor interacting protein 2)	1.13	0.27	0.24
SERPINI2 (serpin family I member 2)	0.99	1	1.01
KCNK5 (potassium two pore domain channel subfamily K member 5)	1.26	0.96	0.76
TIMM8A (translocase of inner mitochondrial membrane 8A)	1.04	0.86	0.83
HAS2 (hyaluronan synthase 2)	1.11	1.02	0.92
MAX (MYC associated transcriptional regulator X)	1.02	0.54	0.53
P3H1 (prolyl 3-hydroxylase 1)	1.01	0.93	0.92
GPRASP2 (G protein-coupled receptor associated sorting protein 2)	0.83	0.86	1.03
SLC18B1	1.03	0.91	0.88
